Test in all cases: co-IP; endogenous proteins; H1299 cells treated with 500 nM CPT for 2 hours; RIPA lysate (20 mM Tris-HCl pH 7.4, 150 mM NaCl, 1% NP-40); precipitated overnight with antibodies against Rad51, FANCD2, BRCA2 or Rad18, protein A-Sepharose; each precipitate blotted for the other 3 proteins; IgG as negative control
In assay [1] the target is Rad18 (human (endogenous in H1299)) (UniProt Q9NS91).
The target of assay [2] is BRCA2 (human (endogenous in H1299)) (UniProt P51587).
Assay [3] deals with Rad51 (human (endogenous in H1299)) (UniProt Q06609).
For assay [4], the target named is FANCD2 (human (endogenous in H1299)) (UniProt Q9BXW9).

Amino acid sequences for entries named in this document (tags omitted).
UniProt Q9NS91: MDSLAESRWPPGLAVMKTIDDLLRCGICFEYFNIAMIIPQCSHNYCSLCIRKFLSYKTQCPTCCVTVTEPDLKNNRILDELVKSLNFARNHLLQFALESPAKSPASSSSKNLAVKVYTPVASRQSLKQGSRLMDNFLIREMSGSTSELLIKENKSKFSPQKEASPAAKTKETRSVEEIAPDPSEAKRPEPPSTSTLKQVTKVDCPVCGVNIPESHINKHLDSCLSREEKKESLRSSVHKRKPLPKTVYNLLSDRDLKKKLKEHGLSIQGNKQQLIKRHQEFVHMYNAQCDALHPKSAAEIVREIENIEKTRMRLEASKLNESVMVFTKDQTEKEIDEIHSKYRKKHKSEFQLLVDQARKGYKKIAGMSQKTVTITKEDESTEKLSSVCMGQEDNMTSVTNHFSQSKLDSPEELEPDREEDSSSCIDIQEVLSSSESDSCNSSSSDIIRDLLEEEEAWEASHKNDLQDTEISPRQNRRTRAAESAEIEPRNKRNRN
UniProt P51587: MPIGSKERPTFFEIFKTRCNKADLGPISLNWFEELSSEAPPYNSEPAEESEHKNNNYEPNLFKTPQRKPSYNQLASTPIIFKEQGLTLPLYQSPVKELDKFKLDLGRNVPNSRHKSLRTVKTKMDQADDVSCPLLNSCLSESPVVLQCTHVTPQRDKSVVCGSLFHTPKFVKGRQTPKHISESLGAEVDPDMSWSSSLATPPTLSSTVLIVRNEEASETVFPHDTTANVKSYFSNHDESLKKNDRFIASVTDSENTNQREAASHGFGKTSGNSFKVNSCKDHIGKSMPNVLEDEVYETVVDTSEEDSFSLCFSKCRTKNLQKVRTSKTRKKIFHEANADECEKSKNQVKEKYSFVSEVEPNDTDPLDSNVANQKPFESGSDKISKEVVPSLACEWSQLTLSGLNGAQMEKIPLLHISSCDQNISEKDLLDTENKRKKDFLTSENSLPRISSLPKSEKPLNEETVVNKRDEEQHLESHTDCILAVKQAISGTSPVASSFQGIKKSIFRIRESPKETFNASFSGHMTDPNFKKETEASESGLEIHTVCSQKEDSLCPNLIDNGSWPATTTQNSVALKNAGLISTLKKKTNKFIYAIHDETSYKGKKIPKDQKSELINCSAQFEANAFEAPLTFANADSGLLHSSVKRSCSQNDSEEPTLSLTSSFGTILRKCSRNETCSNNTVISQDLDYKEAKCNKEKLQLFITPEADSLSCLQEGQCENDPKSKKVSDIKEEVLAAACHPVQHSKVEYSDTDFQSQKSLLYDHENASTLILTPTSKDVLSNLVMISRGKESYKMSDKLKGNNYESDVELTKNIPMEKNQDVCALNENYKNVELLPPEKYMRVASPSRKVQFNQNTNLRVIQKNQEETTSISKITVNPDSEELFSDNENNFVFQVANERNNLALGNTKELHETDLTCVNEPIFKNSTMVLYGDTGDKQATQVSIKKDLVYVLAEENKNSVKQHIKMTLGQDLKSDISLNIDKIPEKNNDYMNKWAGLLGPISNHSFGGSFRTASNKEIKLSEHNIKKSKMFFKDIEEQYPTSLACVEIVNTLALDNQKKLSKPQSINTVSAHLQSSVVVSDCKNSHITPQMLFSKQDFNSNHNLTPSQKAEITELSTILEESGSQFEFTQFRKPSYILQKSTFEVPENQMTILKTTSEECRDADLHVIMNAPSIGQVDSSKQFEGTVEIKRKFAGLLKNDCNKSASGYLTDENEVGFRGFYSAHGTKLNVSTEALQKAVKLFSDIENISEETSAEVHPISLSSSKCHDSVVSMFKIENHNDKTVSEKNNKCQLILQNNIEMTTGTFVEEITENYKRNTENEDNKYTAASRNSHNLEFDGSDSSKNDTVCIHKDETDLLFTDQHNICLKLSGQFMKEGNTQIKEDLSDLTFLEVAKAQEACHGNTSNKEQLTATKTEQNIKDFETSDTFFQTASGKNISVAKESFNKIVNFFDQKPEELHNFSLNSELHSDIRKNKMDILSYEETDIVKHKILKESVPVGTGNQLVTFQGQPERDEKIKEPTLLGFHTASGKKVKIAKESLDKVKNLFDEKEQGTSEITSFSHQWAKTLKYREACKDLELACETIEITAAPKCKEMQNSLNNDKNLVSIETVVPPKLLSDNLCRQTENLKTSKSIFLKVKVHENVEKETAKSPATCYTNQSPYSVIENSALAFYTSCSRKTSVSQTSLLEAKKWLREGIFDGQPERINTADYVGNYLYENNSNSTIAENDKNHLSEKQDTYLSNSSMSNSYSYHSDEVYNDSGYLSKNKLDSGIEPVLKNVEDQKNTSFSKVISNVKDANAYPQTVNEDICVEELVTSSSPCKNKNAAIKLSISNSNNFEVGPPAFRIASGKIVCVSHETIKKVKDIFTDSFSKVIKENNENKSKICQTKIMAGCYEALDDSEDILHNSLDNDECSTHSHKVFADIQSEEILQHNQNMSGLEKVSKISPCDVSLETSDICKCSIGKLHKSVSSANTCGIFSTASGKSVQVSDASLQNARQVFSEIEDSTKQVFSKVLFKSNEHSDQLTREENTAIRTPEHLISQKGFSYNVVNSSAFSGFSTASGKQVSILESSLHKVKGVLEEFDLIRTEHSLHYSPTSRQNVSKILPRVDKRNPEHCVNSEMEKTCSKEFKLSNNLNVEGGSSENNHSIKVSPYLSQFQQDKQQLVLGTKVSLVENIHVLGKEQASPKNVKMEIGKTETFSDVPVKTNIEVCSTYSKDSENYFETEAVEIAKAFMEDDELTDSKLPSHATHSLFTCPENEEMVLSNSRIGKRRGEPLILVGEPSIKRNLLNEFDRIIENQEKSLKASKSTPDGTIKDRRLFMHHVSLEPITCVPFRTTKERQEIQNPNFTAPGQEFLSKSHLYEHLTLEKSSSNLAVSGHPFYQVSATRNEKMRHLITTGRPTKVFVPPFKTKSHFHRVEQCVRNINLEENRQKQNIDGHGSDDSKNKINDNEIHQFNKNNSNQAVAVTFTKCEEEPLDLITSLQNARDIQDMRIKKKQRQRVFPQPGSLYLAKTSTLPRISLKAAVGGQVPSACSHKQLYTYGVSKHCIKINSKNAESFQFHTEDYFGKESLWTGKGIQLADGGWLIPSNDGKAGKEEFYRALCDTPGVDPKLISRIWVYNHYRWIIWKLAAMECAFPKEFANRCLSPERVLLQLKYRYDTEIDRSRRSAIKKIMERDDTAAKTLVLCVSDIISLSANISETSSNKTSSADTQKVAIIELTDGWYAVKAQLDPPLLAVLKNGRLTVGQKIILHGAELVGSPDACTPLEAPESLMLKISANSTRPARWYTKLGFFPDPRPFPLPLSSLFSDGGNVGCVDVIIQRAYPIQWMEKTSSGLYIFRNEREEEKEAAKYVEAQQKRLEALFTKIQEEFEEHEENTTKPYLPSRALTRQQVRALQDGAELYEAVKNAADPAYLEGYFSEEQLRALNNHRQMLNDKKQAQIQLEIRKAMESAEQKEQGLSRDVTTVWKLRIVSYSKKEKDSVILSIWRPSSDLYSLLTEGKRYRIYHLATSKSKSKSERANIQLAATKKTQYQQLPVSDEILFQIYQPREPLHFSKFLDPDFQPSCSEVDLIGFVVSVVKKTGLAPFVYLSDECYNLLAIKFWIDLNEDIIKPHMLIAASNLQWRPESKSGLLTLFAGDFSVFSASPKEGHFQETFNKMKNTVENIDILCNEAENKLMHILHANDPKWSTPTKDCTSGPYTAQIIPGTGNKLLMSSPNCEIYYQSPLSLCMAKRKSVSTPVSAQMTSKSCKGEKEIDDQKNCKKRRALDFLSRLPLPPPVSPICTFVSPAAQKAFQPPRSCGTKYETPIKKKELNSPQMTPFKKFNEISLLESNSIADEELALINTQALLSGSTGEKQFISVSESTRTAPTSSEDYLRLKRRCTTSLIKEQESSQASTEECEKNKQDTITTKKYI
UniProt Q06609: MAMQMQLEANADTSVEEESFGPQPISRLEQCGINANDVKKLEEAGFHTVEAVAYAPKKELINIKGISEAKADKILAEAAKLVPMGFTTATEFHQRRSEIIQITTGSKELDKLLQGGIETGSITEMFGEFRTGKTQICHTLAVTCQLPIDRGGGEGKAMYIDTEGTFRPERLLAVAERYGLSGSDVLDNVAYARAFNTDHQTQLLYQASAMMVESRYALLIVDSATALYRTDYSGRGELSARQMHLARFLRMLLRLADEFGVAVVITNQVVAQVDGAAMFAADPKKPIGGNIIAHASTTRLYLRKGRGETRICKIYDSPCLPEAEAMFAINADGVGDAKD
UniProt Q9BXW9: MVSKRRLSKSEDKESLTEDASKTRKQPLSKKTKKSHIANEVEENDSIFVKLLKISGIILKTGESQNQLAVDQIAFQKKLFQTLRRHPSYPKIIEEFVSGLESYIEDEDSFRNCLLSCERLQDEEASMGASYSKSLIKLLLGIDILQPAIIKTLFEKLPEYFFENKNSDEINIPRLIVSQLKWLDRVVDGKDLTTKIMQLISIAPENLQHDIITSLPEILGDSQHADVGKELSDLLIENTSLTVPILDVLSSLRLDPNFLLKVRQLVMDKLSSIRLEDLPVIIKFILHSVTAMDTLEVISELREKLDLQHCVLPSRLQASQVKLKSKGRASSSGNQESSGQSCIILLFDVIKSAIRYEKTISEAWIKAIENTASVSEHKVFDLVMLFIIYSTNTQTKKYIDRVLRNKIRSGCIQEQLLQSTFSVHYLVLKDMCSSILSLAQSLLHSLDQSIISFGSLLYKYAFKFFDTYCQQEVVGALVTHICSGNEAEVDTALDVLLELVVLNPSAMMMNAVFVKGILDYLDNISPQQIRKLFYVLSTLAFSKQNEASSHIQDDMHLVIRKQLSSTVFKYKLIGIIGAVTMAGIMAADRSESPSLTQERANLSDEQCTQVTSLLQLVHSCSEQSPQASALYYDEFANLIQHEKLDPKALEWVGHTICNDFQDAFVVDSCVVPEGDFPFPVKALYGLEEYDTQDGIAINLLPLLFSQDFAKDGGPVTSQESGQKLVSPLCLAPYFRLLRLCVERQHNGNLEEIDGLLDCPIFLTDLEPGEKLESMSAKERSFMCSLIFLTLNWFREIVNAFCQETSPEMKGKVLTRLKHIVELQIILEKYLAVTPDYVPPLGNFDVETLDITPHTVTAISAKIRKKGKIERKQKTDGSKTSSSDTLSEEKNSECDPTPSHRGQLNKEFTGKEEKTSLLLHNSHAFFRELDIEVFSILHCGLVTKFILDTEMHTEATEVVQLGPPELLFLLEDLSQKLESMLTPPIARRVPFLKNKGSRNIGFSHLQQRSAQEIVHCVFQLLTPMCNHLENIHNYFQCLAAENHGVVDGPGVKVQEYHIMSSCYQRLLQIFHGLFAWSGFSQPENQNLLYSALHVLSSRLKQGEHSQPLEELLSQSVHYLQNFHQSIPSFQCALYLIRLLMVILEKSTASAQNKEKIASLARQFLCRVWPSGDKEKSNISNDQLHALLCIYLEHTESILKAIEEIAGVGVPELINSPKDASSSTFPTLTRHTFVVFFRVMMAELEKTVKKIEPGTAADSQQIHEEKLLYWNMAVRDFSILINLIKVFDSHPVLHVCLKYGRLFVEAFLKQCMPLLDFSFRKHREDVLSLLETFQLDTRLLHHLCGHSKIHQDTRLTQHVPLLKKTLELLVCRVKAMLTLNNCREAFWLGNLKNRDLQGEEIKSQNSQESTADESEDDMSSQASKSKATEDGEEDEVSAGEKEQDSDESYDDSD

Experimental findings from paper PMC4914303 are described below.

These are yes or no findings as the source states them, for the method shown. Binding seen in cells or lysates may run through a third protein. Some binding calls cover weakened binding; strength is not graded here.

In the case of FANCD2 (from UniProt Q9BXW9 1-1451), the binding result in assay [1] was “binds”.

Rad51 (from UniProt Q06609 1-339): in assay [1], the binding entry is listed as “binds”.

Consider BRCA2 (from UniProt P51587 1-3418), for which the binding entry in assay [1] is listed as “binds”.

Turning to Rad18 (from UniProt Q9NS91 1-495), the binding result in assay [2], in assay [3] and in assay [4] was “binds” each time.
